Source: the supplement of paper PMC6411743
± gives the standard deviation of the averaged measurements. The list shows a part of the results, in another mix than the full data.

Key:
Assay in all cases: NP40-soluble protein abundance relative to vehicle (solubility fold change) (ratio); higher = more soluble protein in presence of AMP-PNP
[1] = molecular target: T1, PSMD6 (UniProt Q15008)
T1 sequence (whole entry): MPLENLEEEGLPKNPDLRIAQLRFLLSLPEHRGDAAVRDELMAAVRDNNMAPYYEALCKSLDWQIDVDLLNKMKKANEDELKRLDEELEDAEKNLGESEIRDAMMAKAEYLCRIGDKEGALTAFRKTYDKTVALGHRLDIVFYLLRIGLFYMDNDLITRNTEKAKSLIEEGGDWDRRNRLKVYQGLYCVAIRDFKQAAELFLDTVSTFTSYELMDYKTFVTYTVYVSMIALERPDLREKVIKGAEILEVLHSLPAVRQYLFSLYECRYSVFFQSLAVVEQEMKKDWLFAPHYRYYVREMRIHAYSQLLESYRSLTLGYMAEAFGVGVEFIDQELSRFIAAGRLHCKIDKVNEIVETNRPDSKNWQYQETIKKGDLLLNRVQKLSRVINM
Method in brief: (§1)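 Across three independent experiments, values are fold changes against the detergent-processed vehicle for each replicate, based on vsn-normalised intensities. The samples were Jurkat crude lysate treated with eight concentrations (0.1 to 10 mM) for 10 min at room temperature and then 3 min at 37 °C. Lysate was solubilised with 0.8% NP40 and benzonase, ultracentrifuged, and the supernatant analysed by TMT-labelled LC-MS/MS.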

[2] = molecular target: T2, UniProt Q13137 and related entries
T2 sequence (whole entry): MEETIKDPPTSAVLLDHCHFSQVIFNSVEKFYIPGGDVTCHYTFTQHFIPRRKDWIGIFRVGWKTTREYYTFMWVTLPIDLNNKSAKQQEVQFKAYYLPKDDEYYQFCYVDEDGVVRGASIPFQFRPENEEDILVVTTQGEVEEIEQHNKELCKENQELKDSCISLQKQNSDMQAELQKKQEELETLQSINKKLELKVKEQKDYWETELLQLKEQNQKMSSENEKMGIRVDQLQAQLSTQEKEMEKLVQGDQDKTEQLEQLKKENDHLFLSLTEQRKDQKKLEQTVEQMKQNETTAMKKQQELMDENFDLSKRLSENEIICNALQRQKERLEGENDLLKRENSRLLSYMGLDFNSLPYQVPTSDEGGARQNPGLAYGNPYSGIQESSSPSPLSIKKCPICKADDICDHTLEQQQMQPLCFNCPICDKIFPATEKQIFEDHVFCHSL
Method in brief: as §1

[3] = molecular target: T3, UniProt Q13608 and related entries
T3 sequence (whole entry): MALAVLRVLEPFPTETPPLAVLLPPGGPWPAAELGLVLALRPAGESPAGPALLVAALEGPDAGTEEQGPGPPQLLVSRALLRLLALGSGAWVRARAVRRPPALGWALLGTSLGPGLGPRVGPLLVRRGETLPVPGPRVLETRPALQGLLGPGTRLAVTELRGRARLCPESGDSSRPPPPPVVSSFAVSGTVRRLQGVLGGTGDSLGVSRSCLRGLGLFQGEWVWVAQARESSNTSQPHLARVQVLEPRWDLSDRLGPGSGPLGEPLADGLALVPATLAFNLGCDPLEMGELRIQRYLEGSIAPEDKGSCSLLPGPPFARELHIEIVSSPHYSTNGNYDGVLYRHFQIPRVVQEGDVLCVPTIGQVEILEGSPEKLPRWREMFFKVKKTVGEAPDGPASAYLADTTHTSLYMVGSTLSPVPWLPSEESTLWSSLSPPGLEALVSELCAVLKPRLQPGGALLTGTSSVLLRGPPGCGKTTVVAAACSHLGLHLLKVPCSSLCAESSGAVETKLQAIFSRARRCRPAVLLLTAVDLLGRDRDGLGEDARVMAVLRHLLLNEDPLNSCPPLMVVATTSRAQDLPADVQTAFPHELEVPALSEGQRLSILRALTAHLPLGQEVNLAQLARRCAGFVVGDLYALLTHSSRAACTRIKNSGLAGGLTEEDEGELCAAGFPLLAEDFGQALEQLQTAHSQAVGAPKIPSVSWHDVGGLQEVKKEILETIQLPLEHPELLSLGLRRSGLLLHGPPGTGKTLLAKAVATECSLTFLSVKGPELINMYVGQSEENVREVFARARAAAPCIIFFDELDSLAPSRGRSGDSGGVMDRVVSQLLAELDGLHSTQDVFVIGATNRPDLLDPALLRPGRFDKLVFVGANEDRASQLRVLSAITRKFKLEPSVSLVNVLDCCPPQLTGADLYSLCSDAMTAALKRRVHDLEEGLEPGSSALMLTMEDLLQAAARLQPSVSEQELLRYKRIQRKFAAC
Method in brief: as §1

[4] = molecular target: T4, UniProt Q14697 and related entries
T4 sequence (whole entry): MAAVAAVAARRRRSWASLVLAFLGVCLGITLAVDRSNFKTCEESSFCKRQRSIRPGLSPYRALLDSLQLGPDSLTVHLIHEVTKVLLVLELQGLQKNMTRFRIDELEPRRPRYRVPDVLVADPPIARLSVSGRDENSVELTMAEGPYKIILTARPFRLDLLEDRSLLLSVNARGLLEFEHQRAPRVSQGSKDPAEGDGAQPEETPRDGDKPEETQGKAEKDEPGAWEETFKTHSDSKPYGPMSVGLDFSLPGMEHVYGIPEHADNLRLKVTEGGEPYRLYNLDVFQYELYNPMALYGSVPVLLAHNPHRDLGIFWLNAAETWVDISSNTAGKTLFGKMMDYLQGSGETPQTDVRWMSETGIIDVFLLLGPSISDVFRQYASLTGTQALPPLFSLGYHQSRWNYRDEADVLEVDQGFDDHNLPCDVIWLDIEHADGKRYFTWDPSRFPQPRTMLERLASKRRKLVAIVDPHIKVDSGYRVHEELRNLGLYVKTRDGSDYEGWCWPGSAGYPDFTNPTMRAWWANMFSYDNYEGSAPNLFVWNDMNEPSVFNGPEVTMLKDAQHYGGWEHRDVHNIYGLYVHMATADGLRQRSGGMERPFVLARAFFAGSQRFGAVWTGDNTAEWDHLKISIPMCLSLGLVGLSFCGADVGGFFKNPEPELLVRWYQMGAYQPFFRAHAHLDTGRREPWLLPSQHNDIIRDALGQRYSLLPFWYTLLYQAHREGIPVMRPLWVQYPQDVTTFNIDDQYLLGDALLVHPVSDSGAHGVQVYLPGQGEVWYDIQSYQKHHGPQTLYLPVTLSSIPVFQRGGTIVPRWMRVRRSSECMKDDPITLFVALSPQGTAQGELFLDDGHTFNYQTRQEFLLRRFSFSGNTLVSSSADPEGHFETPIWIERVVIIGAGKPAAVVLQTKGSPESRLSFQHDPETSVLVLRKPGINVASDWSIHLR
Method in brief: as §1

[5] = molecular target: T5, UniProt Q147X3 and related entries
T5 sequence (whole entry): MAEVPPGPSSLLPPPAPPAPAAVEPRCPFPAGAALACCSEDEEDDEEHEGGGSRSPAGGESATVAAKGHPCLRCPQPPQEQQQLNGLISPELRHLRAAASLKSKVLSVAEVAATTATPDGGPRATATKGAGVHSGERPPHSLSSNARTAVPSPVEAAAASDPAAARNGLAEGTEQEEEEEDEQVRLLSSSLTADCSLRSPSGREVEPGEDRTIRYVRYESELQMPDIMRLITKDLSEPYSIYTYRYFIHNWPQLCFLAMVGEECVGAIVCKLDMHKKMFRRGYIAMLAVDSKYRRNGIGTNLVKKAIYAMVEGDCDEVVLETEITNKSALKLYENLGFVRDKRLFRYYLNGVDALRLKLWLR
Method in brief: as §1

[6] = molecular target: T6, UniProt Q14807 and related entries
T6 sequence (whole entry): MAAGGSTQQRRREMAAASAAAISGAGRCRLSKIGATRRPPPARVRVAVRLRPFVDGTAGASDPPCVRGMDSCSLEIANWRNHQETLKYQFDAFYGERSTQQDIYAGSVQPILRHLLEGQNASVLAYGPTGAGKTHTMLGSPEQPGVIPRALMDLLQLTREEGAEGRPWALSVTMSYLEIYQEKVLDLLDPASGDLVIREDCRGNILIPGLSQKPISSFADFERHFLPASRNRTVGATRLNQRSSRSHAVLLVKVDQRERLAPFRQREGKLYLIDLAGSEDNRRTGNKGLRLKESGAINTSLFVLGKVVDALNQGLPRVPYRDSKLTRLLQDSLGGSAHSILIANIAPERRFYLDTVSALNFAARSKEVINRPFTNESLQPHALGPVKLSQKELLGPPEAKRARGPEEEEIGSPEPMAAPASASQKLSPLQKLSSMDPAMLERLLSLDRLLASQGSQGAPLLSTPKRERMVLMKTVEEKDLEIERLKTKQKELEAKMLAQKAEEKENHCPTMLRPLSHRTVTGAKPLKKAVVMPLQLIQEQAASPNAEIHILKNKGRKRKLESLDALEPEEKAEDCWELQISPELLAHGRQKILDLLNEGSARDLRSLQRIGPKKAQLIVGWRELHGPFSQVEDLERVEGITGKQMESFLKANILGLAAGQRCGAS
Method in brief: as §1

Nc1ncnc2c1ncn2[C@@H]1O[C@H](COP(=O)(O)OP(=O)(O)NP(=O)(O)O)[C@@H](O)[C@H]1O [adenylyl imidodiphosphate] gave an NP40-soluble protein abundance ([1]; concentration: 6mM) of 0.914 ± 0.11, an NP40-soluble protein abundance ([1]; concentration: 8mM) of 0.928 ± 0.098 and an NP40-soluble protein abundance ([1]; concentration: 10mM) of 0.916 ± 0.12. The NP40-soluble protein abundance ([2]; concentration: 1mM) was 1.03 ± 0.019, the NP40-soluble protein abundance ([2]; concentration: 2mM) was 1.05 ± 0.016 and the NP40-soluble protein abundance ([2]; concentration: 4mM) was 1.01 ± 0.033. For the same molecule, the NP40-soluble protein abundance ([2]; concentration: 6mM) was 0.967 ± 0.079, the NP40-soluble protein abundance ([2]; concentration: 8mM) was 0.948 ± 0.028 and the NP40-soluble protein abundance ([2]; concentration: 10mM) was 0.963 ± 0.04. The NP40-soluble protein abundance ([3]; concentration: 1mM) was 1.1 ± 0.023, the NP40-soluble protein abundance ([3]; concentration: 2mM) was 1.08 ± 0.059 and the NP40-soluble protein abundance ([3]; concentration: 4mM) was 1.12 ± 0.06. The NP40-soluble protein abundance ([3]; concentration: 6mM) was 1.08 ± 0.093, the NP40-soluble protein abundance ([3]; concentration: 8mM) was 1.06 ± 0.075 and the NP40-soluble protein abundance ([3]; concentration: 10mM) was 1.1 ± 0.069. The NP40-soluble protein abundance ([4]; concentration: 1mM) was 0.919 ± 0.025, the NP40-soluble protein abundance ([4]; concentration: 2mM) was 0.889 ± 0.066 and the NP40-soluble protein abundance ([4]; concentration: 4mM) was 0.936 ± 0.021. For the same molecule, the NP40-soluble protein abundance ([4]; concentration: 6mM) was 0.962 ± 0.054, the NP40-soluble protein abundance ([4]; concentration: 8mM) was 0.972 ± 0.052 and the NP40-soluble protein abundance ([4]; concentration: 10mM) was 0.935 ± 0.02. For the same molecule, the NP40-soluble protein abundance ([5]; concentration: 1mM) was 0.992 ± 0.016, the NP40-soluble protein abundance ([5]; concentration: 2mM) was 0.971 ± 0.025 and the NP40-soluble protein abundance ([5]; concentration: 4mM) was 1.01 ± 0.059. The NP40-soluble protein abundance ([5]; concentration: 6mM) was 1.03 ± 0.046, the NP40-soluble protein abundance ([5]; concentration: 8mM) was 0.99 ± 0.023 and the NP40-soluble protein abundance ([5]; concentration: 10mM) was 1 ± 0.025. The NP40-soluble protein abundance ([6]; concentration: 1mM) was 1.07 ± 0.029, the NP40-soluble protein abundance ([6]; concentration: 2mM) was 1.07 ± 0.02 and the NP40-soluble protein abundance ([6]; concentration: 4mM) was 1.16 ± 0.046. It also gave an NP40-soluble protein abundance ([6]; concentration: 6mM) of 1.2 ± 0.032, an NP40-soluble protein abundance ([6]; concentration: 8mM) of 1.23 ± 0.079 and an NP40-soluble protein abundance ([6]; concentration: 10mM) of 1.26 ± 0.082.
